In the supplement of paper PMC6331611:
± gives the standard deviation of the averaged measurements. Over roughly 1,600 compounds, “normalized intracellular growth (luminescence, IQM-normalized) in RAW264.7 macrophages” has its median near 1; the lowest 2% begin near 0.43. This is one part of the list.

System: Salmonella enterica serovar Typhimurium SL1344
Test: normalized intracellular growth (luminescence, IQM-normalized) in RAW264.7 macrophages (fraction of plate interquartile mean); higher = more bacterial growth (less inhibition)
Conditions: 10 µM

Row | Compound | normalized intracellular growth (time point: T3 (3 h)) | normalized intracellular growth (time point: Tfinal (~6 h))
1 | CCC(=O)c1ccc(O)cc1 | 0.925 ± 0.049 | 1 ± 0.03
2 | Oc1ccc(Cl)c2cccnc12 | 0.939 ± 0.09 | 0.895 ± 0.11
3 | Nc1c(Br)cc(Br)cc1CN[C@H]1CC[C@H](O)CC1 | 0.985 ± 0.049 | 0.934 ± 0.087
4 | Cn1ccnc1S | 1.08 ± 0.063 | 0.892 ± 0.067
5 | CC(C)(Sc1cc(C(C)(C)C)c(O)c(C(C)(C)C)c1)Sc1cc(C(C)(C)C)c(O)c(C(C)(C)C)c1 | 0.961 ± 0.093 | 1.18 ± 0.11
6 | COc1ccccc1N1CCN(CC(O)COc2cccc3ccccc23)CC1 (stereo not given) | 0.964 ± 0.054 | 1.13 ± 0.11
7 | CN1CCC(=C2c3ccccc3CC(=O)c3sccc32)CC1 | 0.953 ± 0.017 | 1.04 ± 0.054
8 | CCN1C(=O)NC(c2ccccc2)C1=O (stereo not given) | 0.967 ± 0.024 | 0.77 ± 0.046
9 | CCCN(CCC)C(=O)C(CCC(=O)O)NC(=O)c1ccccc1 (stereo not given) | 0.972 ± 0.085 | 1.04 ± 0.2
10 | N#CC(c1ccc(Cl)cc1)c1c(Cl)cc(-n2ncc(=O)[nH]c2=O)cc1Cl (stereo not given) | 1.04 ± 0.035 | 0.865 ± 0.1
11 | COc1cc(OC)c(C(=O)CCCN2CCCC2)c(OC)c1 | 1.11 ± 0.12 | 0.941 ± 0.15
12 | CCC(=O)OCC(=O)[C@@]1(OC(=O)CC)[C@H](C)CC2C3C([C@@H](O)C[C@@]21C)[C@@]1(C)C=CC(=O)C=C1C[C@H]3Cl (stereo not given in full) | 1 ± 0.06 | 1.15 ± 0.12
13 | CC(C)(S)[C@@H](N)C(=O)O | 0.991 ± 0.041 | 0.975 ± 0.076
14 | O=C(O)C1CSCN1 (stereo not given) | 0.997 ± 0.017 | 1.07 ± 0.084
15 | CCCCCCCCCCC[C@@H](C[C@@H]1OC(=O)[C@H]1CCCCCC)OC(=O)[C@H](CC(C)C)NC=O | 0.987 ± 0.091 | 1.21 ± 0.048
16 | O=C1O[C@H](CO)[C@@H](O)[C@H](O)[C@H]1O | 1.06 ± 0.059 | 1.06 ± 0.06
17 | CC(=O)NO | 0.913 ± 0.073 | 1.01 ± 0.016
18 | CC(=O)N[C@@H](CCC(N)=O)C(=O)O | 0.959 ± 0.023 | 0.942 ± 0.11
19 | CN1CCCN=C1COC(=O)C(O)(c1ccccc1)C1CCCCC1 (stereo not given) | 1.07 ± 0.042 | 1.06 ± 0.075
20 | CC(C)(Oc1ccc(Cl)cc1)C(=O)O | 1.04 ± 0.021 | 0.995 ± 0.068
21 | C[C@]12CC[C@@H]3c4ccc(OS(=O)(=O)O)cc4CC[C@H]3[C@@H]1CCC2=O | 0.949 ± 0.03 | 0.95 ± 0.093
22 | COc1cccc(OC)c1C(=O)N[C@@H]1C(=O)N2[C@@H]1SC(C)(C)[C@@H]2C(=O)O | 0.957 ± 0.027 | 0.935 ± 0.093
23 | Cc1ccc(S(=O)(=O)NC(=O)NN2CCCCCC2)cc1 | 1.04 ± 0.025 | 1.018 ± 0.0042

Single records (already shown).
Nc1c(Br)cc(Br)cc1CN[C@H]1CC[C@H](O)CC1 is listed as normalized intracellular growth (time point: T3 (3 h)): 0.985 ± 0.049; normalized intracellular growth (time point: Tfinal (~6 h)): 0.934 ± 0.087
CCC(=O)c1ccc(O)cc1 is listed as normalized intracellular growth (time point: T3 (3 h)): 0.925 ± 0.049; normalized intracellular growth (time point: Tfinal (~6 h)): 1 ± 0.03
CN1CCCN=C1COC(=O)C(O)(c1ccccc1)C1CCCCC1 (stereo not given) is listed as normalized intracellular growth (time point: T3 (3 h)): 1.07 ± 0.042; normalized intracellular growth (time point: Tfinal (~6 h)): 1.06 ± 0.075
Oc1ccc(Cl)c2cccnc12 is listed as normalized intracellular growth (time point: T3 (3 h)): 0.939 ± 0.09; normalized intracellular growth (time point: Tfinal (~6 h)): 0.895 ± 0.11

Next part:

Row | Compound | normalized intracellular growth (time point: T3 (3 h)) | normalized intracellular growth (time point: Tfinal (~6 h))
24 | CC(C)(C)CC(C)(C)c1ccc(O)c(Cc2ccc(Cl)cc2Cl)c1 | 0.941 ± 0.069 | 0.835 ± 0.21
25 | CCN(CC)CCOC(=O)C(c1ccccc1)c1ccccc1 | 0.98 ± 0.052 | 1.03 ± 0.011
26 | Nc1nc(NC2CC2)c2ncn([C@H]3C=C[C@@H](CO)C3)c2n1 | 0.9936 ± 0.0059 | 0.935 ± 0.024
27 | O=C(COc1ccc(Cl)cc1)N1CCN(Cc2ccc3c(c2)OCO3)CC1 | 1.11 ± 0.036 | 1.01 ± 0.042
28 | N[C@@H](Cc1ccc(O)cc1)C(=O)O | 0.934 ± 0.037 | 0.846 ± 0.31
29 | CCOc1ccc2nc3cc(N)ccc3c(N)c2c1 | 0.985 ± 0.058 | 0.873 ± 0.26
30 | CCN(CC)CCNc1ccc(CO)c2sc3ccccc3c(=O)c12 | 1.06 ± 0.065 | 0.825 ± 0.043
31 | CN(C)c1ccc(O)c2c1C[C@H]1C[C@H]3[C@H](N(C)C)C(O)=C(C(N)=O)C(=O)[C@@]3(O)C(O)=C1C2=O | 1.01 ± 0.091 | 0.33 ± 0.14
32 | Cc1ccsc1/C=C/C1=NCCCN1C | 1 ± 0.065 | 0.923 ± 0.16
33 | CCCCCCCCCCCCCCCCOP(=O)([O-])OCC[N+](C)(C)C | 0.979 ± 0.025 | 1.05 ± 0.19
34 | CN(C)[C@@H]1C(O)=C(C(N)=O)C(=O)[C@@]2(O)C(O)=C3C(=O)c4c(O)cccc4[C@@](C)(O)[C@H]3[C@H](O)[C@@H]12 | 1.01 ± 0.074 | 0.0331 ± 0.014
35 | CSc1ccc2c(c1)N(CCC1CCCCN1C)c1ccccc1S2 (stereo not given) | 1.05 ± 0.12 | 1.24 ± 0.08
36 | CC/C(=C(/CC)c1ccc(O)cc1)c1ccc(O)cc1 | 0.983 ± 0.022 | 1.11 ± 0.04
37 | CC1=C(/C=C/C(C)=C/C=C/C(C)=C\C(=O)O)C(C)(C)CCC1 | 0.851 ± 0.031 | 0.977 ± 0.048
38 | Cl.N=C(N)NCCC[C@H](N)C(=O)O | 1.05 ± 0.065 | 1.02 ± 0.092
39 | NC(N)=Nc1nc(CSCC/C(N)=N/S(N)(=O)=O)cs1 | 1.03 ± 0.1 | 0.877 ± 0.12
40 | Cc1cc(-c2ccccc2)nnc1NCCN1CCOCC1 | 1.02 ± 0.029 | 0.986 ± 0.19
41 | CCCCC1(COC(=O)CCC(=O)O)C(=O)N(c2ccccc2)N(c2ccccc2)C1=O | 1.08 ± 0.039 | 1.01 ± 0.075
42 | COc1cc(NC(C)CCCN)c2ncccc2c1 (stereo not given) | 0.827 ± 0.19 | 0.849 ± 0.13
43 | CC(C)(C)c1ccc(C(O)CCCN2CCC(C(O)(c3ccccc3)c3ccccc3)CC2)cc1 (stereo not given) | 0.831 ± 0.034 | 0.752 ± 0.2
44 | CC(COc1ccccc1)NC(C)C(O)c1ccc(O)cc1 (stereo not given) | 1.028 ± 0.0075 | 1.03 ± 0.024
45 | CCCCN1CCCCC1C(=O)Nc1c(C)cccc1C (stereo not given) | 1.05 ± 0.043 | 0.561 ± 0.22
